Experimental data: US7112333B1, “T cell epitopes of ryegrass pollen allergen” (Heska Corporation, priority 1994, dated 2006)
Some entries share one result that the patent states for a list of compounds.

Tested on: Lol p V reactive T Cells
Assay: T cell proliferation (tritiated thymidine) of Lol p V-primed T cell lines from grass-allergic patients
Format: cell-based, human
Settings: for positivity index (% of patients responding multiplied by mean S.I.): group of 19 patients tested, FIG. 4; for mean T cell stimulation index (S.I.): 19 patients, T cell lines primed in vitro with affinity purified Lol p V, mean of positive responses (S.I. at least 2), FIGS. 4 and 5
Source text: As discussed in Example 2, human T cell stimulating activity can be tested by culturing T cells obtained from an individual sensitive to Lol p V allergen, (i.e., an individual who has an IgE mediated immune response to Lol p V allergen) with a peptide derived from the allergen and determining whether proliferation of T cells occurs in response to the peptide as measured, e.g., by cellular uptake of tritiated thymidine. Stimulation indices for responses by T cells to peptides can be calculated as the maximum CPM in response to a peptide divided by the control CPM. A stimulation index (S.I.) equal to or greater than two times the background level is considered “positive”. Positive results are used to calculate the mean stimulation index for each peptide for the group of patients tested. In FIGS. 4 and 5 the mean T cell stimulation index is indicated above the bar. Preferred peptides of this invention comprise at least one T cell epitope and have a mean T cell stimulation index of greater than or equal to 2.0. A peptide having a mean T cell stimulation index of greater than or equal to 2.0 in a significant number of ryegrass pollen sensitive patients tested is considered useful as a therapeutic agent. Preferred peptides have a mean T cell stimulation index of at least 2.5, more preferably at least 3.0, more preferably at least 3.5, more preferably at least 4.0, more preferably at least 5.0 and most preferably at least about 6. For example, peptides of the invention having a mean T cell stimulation index of at least 5, as indicated by data shown in FIGS. 4 and 5, include peptides LPIX-4 (SEQ ID NO:6), LPIX-5 (SEQ ID NO:7), LPIX-8 (SEQ ID NO:10), LPIX-17 (SEQ ID NO:19) and LPIX-19 (SEQ ID NO:21).
In addition, preferred peptides have a positivity index (P.I.) of at least about 60, more preferably about 100, more preferably at least about 200 and most preferably at least about 300. The positivity index for a peptide is determined by multiplying the mean T cell stimulation index by the percent of individuals, in a population of individuals sensitive to ryegrass pollen (e.g., preferably a population of at least 15 individuals, more preferably a population of at least 30 individuals or more), who have a T cell stimulation index to such peptide of at least 2.0. […]
In FIG. 5, the bar represents the cumulative rank of the peptide response in the group of patients tested as described in Example 2. To determine the cumulative rank, the 5 peptides with the highest S.I. in each individual were determined and assigned a numerical rank in descending order, with 5 representing the strongest response. […]
This amount of priming antigen was determined to be optimal for the activation of T cells from most grass-allergic patients. […]

Row | Substance | positivity index (% of patients responding multiplied by mean S.I.) | mean T cell stimulation index (S.I.)
1 | LPIX-4: synthetic overlapping peptide derived from Lol p V, sequence in FIG. 2 (EQKLLEDVNAGFKAAVAAAA; Lolium perenne) | at least 100 | –
2 | LPIX-8: synthetic overlapping peptide derived from Lol p V, sequence in FIG. 2 (GLLATSAAKAPGLIPKLDTA; Lolium perenne) | – | at least 5
3 | LPIX-17: synthetic overlapping peptide derived from Lol p V, sequence in FIG. 2 (ATAANAAPTNDKFTVFESAF; Lolium perenne) | at least 100 | –
4 | LPIX-19: synthetic overlapping peptide derived from Lol p V, sequence in FIG. 2 (NKALNECTGGAYETYKFIPS; Lolium perenne) | – | at least 5
